For eleven targets, log2 fold change results are on record in the supplement of paper PMC12819154, “High-throughput peptide-centric local stability assay extends protein–ligand identification to membrane proteins, tissues and bacteria” (Nature Structural & Molecular Biology, 2025).

Amino acid sequences for entries named in this document (tags omitted). A change or cut given only in a name is not applied to a line headed by its entry.
UniProt Q9BCZ4, whole entry: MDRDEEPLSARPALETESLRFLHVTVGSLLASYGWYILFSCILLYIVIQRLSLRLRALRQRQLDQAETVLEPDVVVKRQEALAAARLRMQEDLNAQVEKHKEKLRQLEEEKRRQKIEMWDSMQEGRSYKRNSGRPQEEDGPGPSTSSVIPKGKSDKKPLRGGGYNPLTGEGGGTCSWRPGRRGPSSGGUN
UniProt Q9CQW1: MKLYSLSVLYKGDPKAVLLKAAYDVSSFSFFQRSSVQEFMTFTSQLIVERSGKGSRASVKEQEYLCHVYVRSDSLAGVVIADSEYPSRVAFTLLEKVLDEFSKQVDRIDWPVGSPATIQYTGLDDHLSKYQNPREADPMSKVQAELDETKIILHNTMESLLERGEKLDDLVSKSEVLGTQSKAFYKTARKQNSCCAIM
UniProt Q99N32: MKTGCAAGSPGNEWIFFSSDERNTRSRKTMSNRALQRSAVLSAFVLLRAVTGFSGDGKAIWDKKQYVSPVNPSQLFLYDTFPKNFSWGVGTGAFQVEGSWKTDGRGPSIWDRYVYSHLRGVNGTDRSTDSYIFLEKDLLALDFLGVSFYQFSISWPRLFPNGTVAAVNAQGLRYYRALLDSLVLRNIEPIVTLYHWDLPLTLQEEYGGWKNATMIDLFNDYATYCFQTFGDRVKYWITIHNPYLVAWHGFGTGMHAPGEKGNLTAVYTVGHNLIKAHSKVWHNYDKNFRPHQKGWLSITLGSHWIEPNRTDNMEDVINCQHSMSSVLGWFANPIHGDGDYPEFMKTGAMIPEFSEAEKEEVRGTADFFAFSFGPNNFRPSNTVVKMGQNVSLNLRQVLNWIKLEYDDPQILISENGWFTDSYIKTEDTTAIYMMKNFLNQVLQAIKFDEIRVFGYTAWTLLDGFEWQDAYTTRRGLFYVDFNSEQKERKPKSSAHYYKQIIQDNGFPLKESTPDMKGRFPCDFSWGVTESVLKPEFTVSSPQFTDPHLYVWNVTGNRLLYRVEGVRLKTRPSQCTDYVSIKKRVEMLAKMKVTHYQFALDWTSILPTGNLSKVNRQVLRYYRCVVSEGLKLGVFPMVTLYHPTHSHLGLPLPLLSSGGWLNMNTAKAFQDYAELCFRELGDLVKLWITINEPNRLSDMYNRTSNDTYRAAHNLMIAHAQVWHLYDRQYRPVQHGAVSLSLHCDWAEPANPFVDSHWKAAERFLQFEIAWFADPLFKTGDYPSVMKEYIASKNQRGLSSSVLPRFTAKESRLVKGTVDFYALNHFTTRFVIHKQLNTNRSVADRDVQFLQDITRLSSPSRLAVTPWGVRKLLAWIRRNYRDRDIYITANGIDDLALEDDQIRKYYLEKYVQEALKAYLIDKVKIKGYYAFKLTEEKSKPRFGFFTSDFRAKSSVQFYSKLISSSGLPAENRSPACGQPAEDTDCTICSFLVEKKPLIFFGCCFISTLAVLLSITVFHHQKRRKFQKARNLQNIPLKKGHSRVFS
UniProt Q9CQ22, whole entry: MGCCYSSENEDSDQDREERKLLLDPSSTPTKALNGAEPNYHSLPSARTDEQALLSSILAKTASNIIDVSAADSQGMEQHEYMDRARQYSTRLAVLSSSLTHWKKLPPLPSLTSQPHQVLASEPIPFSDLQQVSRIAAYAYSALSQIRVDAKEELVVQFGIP
UniProt Q99MN9: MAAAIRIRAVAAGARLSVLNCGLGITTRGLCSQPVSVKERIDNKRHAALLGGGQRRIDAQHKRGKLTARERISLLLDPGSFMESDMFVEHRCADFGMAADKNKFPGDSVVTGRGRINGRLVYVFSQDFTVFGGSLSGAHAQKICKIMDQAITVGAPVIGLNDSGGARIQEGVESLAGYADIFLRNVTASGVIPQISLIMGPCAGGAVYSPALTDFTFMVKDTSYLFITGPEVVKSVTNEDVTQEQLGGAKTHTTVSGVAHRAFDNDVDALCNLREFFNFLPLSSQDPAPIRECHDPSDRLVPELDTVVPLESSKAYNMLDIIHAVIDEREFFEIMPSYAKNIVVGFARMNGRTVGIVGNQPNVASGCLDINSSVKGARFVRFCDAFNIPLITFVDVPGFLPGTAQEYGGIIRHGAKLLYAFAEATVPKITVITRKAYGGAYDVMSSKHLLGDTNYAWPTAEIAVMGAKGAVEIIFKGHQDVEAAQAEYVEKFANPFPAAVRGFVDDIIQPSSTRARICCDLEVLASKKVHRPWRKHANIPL
UniProt Q9CQX2: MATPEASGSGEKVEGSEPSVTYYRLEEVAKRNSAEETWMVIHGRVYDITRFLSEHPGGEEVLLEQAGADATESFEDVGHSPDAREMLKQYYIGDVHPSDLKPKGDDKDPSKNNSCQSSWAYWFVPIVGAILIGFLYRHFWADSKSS
UniProt Q9CQ46: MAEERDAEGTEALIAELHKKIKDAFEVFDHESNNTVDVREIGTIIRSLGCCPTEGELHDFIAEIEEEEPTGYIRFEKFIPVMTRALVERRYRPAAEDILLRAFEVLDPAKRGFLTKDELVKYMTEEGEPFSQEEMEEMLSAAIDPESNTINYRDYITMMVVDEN
UniProt Q99N11: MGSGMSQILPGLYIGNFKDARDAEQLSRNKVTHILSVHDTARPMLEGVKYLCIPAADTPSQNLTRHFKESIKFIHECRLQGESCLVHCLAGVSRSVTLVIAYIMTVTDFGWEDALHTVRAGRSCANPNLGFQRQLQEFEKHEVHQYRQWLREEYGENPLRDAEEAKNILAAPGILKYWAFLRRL
UniProt Q99MB2: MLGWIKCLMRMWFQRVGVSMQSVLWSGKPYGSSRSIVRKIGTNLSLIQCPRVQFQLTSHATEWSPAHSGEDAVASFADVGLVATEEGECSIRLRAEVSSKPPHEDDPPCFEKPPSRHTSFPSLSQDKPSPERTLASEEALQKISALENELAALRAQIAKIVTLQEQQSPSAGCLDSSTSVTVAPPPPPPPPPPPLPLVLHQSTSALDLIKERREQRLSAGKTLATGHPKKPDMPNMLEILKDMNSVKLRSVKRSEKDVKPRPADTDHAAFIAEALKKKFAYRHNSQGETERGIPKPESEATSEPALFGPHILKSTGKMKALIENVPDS
UniProt Q99N94, whole entry, looked up: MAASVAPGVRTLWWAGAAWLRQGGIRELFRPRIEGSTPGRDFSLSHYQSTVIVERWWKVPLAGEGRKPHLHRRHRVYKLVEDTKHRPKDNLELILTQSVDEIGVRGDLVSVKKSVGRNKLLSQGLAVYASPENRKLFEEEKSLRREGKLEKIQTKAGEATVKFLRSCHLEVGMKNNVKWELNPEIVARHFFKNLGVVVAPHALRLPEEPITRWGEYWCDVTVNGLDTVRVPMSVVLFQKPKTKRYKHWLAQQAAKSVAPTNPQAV
UniProt Q9CQ49: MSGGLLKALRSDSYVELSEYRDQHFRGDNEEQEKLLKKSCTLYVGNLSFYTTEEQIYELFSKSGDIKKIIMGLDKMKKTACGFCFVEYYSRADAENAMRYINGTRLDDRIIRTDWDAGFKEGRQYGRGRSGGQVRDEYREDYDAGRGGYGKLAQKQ

The list shows a part of the results. Small differences around the control level are noise.

Compound in this assay: CN[C@@H]1C[C@H]2O[C@@](C)([C@@H]1OC)n1c3ccccc3c3c4c(c5c6ccccc6n2c5c31)C(=O)NC4 [staurosporine]
Put plainly: log2 fold change of tryptic peptide abundance, ligand vs vehicle (limited proteolysis) (log2 ratio); higher = more trypsin-susceptible (destabilized). The settings on record: ligand concentration: 20 uM; sample: mouse liver crude lysate; replicate design: treated separately.
“UniProt Q9BCZ4 (peptide sequence: LRMQEDLNAQVEK, peptide start residue: 87)”: the log2 fold change was -0.594.

Take “UniProt Q9CQW1 (peptide sequence: VAFTLLEK, peptide start residue: 89)”: the log2 fold change was -0.276.

As for “UniProt Q99N32 (peptide sequence: LISSSGLPAENR, peptide start residue: 959)”, the log2 fold change was 0.448.

Regarding “UniProt Q9CQ22 (peptide sequence: ALNGAEPNYHSLPSAR, peptide start residue: 32)”, the log2 fold change is -0.0979.

As for “UniProt Q99MN9 (peptide sequence: GHQDVEAAQAEYVEK, peptide start residue: 477)”, the log2 fold change was -0.116.

“UniProt Q9CQX2 (peptide sequence: NSAEETWMVIHGR, peptide start residue: 32)”: the log2 fold change was found to be 0.133.

With “UniProt Q9CQ46 (peptide sequence: AFEVLDPAKR, peptide start residue: 102)”, the log2 fold change was determined as 0.129.

Turning to “UniProt Q99N11 (peptide sequence: NILAAPGILK, peptide start residue: 167)”, the log2 fold change is -0.21.

For the target “UniProt Q99MB2 (peptide sequence: GIPKPESEATSEPALFGPHILK, peptide start residue: 292)”, the log2 fold change is -0.179.

As to “UniProt Q99N94 (peptide sequence: NLGVVVAPHALR, peptide start residue: 193)”, the log2 fold change stood at 0.355.

On to “UniProt Q9CQ49 (peptide sequence: KIIMGLDK, peptide start residue: 68)”, for which the log2 fold change came to 0.186.
